B1: Q9QWL7 (protein, UniProt Q9QWL7 1-433, looked up)
chain: MTTTIRQFTSSSSIKGSSGLGGGSSRTSCRLSGSLGAGSCRLGSASGLGSALGSNSYSSCYSFGTGSGYGGNFGGVDGLLAGGEKATMQNLNDRLASYLDKVRALEEANTELEVKIRDWYQKQAPGPARDYSAYYHTIEDLKNKILVATVDNASILLQIDNARLAADDFRTKFETEQALRMSVEADINGLRRVLDELTLARADLEMQIENLKEELAYLKKNHEEEMNALRGQVGGEINVEMDAAPGVDLSRILSEMRDQYEKMAEKNRKDAEDWFFSKTEELNREVATNSELVQSGKSEISELRRTMQALEIELQSQLSMKASLEGSLAETENRYCVQLSQIQGLIGSVEEQLAQLRCEMEQQNQEYKILLDVKTRLEQEIATYRRLLEGEDAHLTQYKPKEPVTTRQVRTIVEEVQDGKVISSREQVHQTTR
modifications: full-length
B2: O35565 (protein, UniProt O35565 1-209, looked up)
chain: MWKWILTHCASAFPHLPGCCCCFLLLFLVSSFPVTCQALGQDMVSQEATNCSSSSSSFSSPSSAGRHVRSYNHLQGDVRWRRLFSFTKYFLTIEKNGKVSGTKNEDCPYSVLEITSVEIGVVAVKAINSNYYLAMNKKGKLYGSKEFNNDCKLKERIEENGYNTYASFNWQHNGRQMYVALNGKGAPRRGQKTRRKNTSAHFLPMTIQT
modifications: full-length
B3: P19001 (protein, UniProt P19001 1-403, looked up)
chain: MTSYSYRQTSAMSSFGGTGGGSVRIGSGGVFRAPSIHGGSGGRGVSVSSTRFVTSSSGSYGGVRGGSFSGTLAVSDGLLSGNEKITMQNLNDRLASYLDKVRALEQANGELEVKIRDWYQKQGPGPSRDYNHYFKTIEDLRDKILGATIDNSKIVLQIDNARLAADDFRTKFETEHALRLSVEADINGLRRVLDELTLARTDLEMQIESLKEELAYLKKNHEEEITALRSQVGGQVSVEVDSTPGVDLAKILSEMRSQYEIMAEKNRKDAEATYLARIEELNTQVAVHSEQIQISKTEVTDLRRTLQGLEIELQSQLSMKAALEGTLAETEARYGVQLSQIQSVISGFEAQLSDVRADIERQNQEYKQLMDIKSRLEQEIATYRSLLEGQEAHYNNLPTPKAI
modifications: full-length
B4: P62631 (protein, UniProt P62631 1-463, looked up)
chain: MGKEKTHINIVVIGHVDSGKSTTTGHLIYKCGGIDKRTIEKFEKEAAEMGKGSFKYAWVLDKLKAERERGITIDISLWKFETTKYYITIIDAPGHRDFIKNMITGTSQADCAVLIVAAGVGEFEAGISKNGQTREHALLAYTLGVKQLIVGVNKMDSTEPAYSEKRYDEIVKEVSAYIKKIGYNPATVPFVPISGWHGDNMLEPSPNMPWFKGWKVERKEGNASGVSLLEALDTILPPTRPTDKPLRLPLQDVYKIGGIGTVPVGRVETGILRPGMVVTFAPVNITTEVKSVEMHHEALSEALPGDNVGFNVKNVSVKDIRRGNVCGDSKADPPQEAAQFTSQVIILNHPGQISAGYSPVIDCHTAHIACKFAELKEKIDRRSGKKLEDNPKSLKSGDAAIVEMVPGKPMCVESFSQYPPLGRFAVRDMRQTVAVGVIKNVEKKSGGAGKVTKSAQKAQKAGK
modifications: full-length
B5: Q07797 (protein, UniProt Q07797 1-577, looked up)
chain: MALLWLLSVFLLVPGTQGTEDGDMRLVNGASANEGRVEIFYRGRWGTVCDNLWNLLDAHVVCRALGYENATQALGRAAFGPGKGPIMLDEVECTGTESSLASCRSLGWMVSRCGHEKDAGVVCSNDTTGLHILDLSGELSDALGQIFDSQQGCDLFIQVTGQGYEDLSLCAHTLILRTNPEAQALWQVVGSSVIMRVDAECMPVVRDFLRYFYSRRIEVSMSSVKCLHKLASAYGATELQDYCGRLFATLLPQDPTFHTPLDLYAYARATGDSMLEDLCVQFLAWNFEPLTQSESWSAVPTTLIQALLPKSELAVSSELDLLKAVDQWSTETIASHEDIERLVEQVRFPMMLPQELFELQFNLSLYQDHQALFQRKTMQALEFHTVPVEVLAKYKGLNLTEDTYKPRLYTSSTWSSLVMASTWRAQRYEYNRYNQLYTYGYGSVARYNSYQSFQTPQHPSFLFKDKQISWSATYLPTMQSCWNYGFSCTSNELPVLGLTTSSYSNPTIGYENRVLILCGGYSVVDVTSFEGSKAPIPTALDTNSSKTPSLFPCASGAFSSFRVVIRPFYLTNSTDMV
modifications: full-length
B6: P80314 (protein, UniProt P80314 1-535, looked up)
chain: MASLSLAPVNIFKAGADEERAETARLSSFIGAIAIGDLVKSTLGPKGMDKILLSSGRDAALMVTNDGATILKNIGVDNPAAKVLVDMSRVQDDEVGDGTTSVTVLAAELLREAESLIAKKIHPQTIISGWREATKAAREALLSSAVDHGSDEARFWQDLMNIAGTTLSSKLLTHHKDHFTKLAVEAVLRLKGSGNLEAIHVIKKLGGSLADSYLDEGFLLDKKIGVNQPKRIENAKILIANTGMDTDKIKIFGSRVRVDSTAKVAEIEHAEKEKMKEKVERILKHGINCFINRQLIYNYPEQLFGAAGVMAIEHADFAGVERLALVTGGEIASTFDHPELVKLGSCKLIEEVMIGEDKLIHFSGVALGEACTIVLRGATQQILDEAERSLHDALCVLAQTVKDPRTVYGGGCSEMLMAHAVTQLANRTPGKEAVAMESFAKALRMLPTIIADNAGYDSADLVAQLRAAHSEGHITAGLDMKEGTIGDMAVLGITESFQVKRQVLLSAAEAAEVILRVDNIIKAAPRKRVPDHHPC
modifications: full-length
B7: Q61838 (protein, UniProt Q61838 1-1495, looked up)
chain: MRRNQLPTPAFLLLFLLLPRDATTATAKPQYVVLVPSEVYSGVPEKACVSLNHVNETVMLSLTLEYAMQQTKLLTDQAVDKDSFYCSPFTISGSPLPYTFITVEIKGPTQRFIKKKSIQIIKAESPVFVQTDKPIYKPGQIVKFRVVSVDISFRPLNETFPVVYIETPKRNRIFQWQNIHLAGGLHQLSFPLSVEPALGIYKVVVQKDSGKKIEHSFEVKEYVLPKFEVIIKMQKTMAFLEEELPITACGVYTYGKPVPGLVTLRVCRKYSRYRSTCHNQNSMSICEEFSQQADDKGCFRQVVKTKVFQLRQKGHDMKIEVEAKIKEEGTGIELTGIGSCEIANALSKLKFTKVNTNYRPGLPFSGQVLLVDEKGKPIPNKNITSVVSPLGYLSIFTTDEHGLANISIDTSNFTAPFLRVVVTYKQNHVCYDNWWLDEFHTQADHSATLVFSPSQSYIQLELVFGTLACGQTQEIRIHYLLNEDIMKNEKDLTFYYLIKARGSIFNLGSHVLSLEQGNMKGVFSLPIQVEPGMAPEAQLLIYAILPNEELVADAQNFEIEKCFANKVNLSFPSAQSLPASDTHLKVKAAPLSLCALTAVDQSVLLLKPEAKLSPQSIYNLLPGKTVQGAFFGVPVYKDHENCISGEDITHNGIVYTPKHSLGDNDAHSIFQSVGINIFTNSKIHKPRFCQEFQHYPAMGGVAPQALAVAASGPGSSFRAMGVPMMGLDYSDEINQVVEVRETVRKYFPETWIWDLVPLDVSGDGELAVKVPDTITEWKASAFCLSGTTGLGLSSTISLQAFQPFFLELTLPYSVVRGEAFTLKATVLNYMSHCIQIRVDLEISPDFLAVPVGGHENSHCICGNERKTVSWAVTPKSLGEVNFTATAEALQSPELCGNKLTEVPALVHKDTVVKSVIVEPEGIEKEQTYNTLLCPQDTELQDNWSLELPPNVVEGSARATHSVLGDILGSAMQNLQNLLQMPYGCGEQNMVLFVPNIYVLNYLNETQQLTEAIKSKAINYLISGYQRQLNYQHSDGSYSTFGNHGGGNTPGNTWLTAFVLKAFAQAQSHIFIEKTHITNAFNWLSMKQKENGCFQQSGYLLNNAMKGGVDDEVTLSAYITIALLEMPLPVTHSAVRNALFCLETAWASISQSQESHVYTKALLAYAFALAGNKAKRSELLESLNKDAVKEEDSLHWQRPGDVQKVKALSFYQPRAPSAEVEMTAYVLLAYLTSESSRPTRDLSSSDLSTASKIVKWISKQQNSHGGFSSTQDTVVALQALSKYGAATFTRSQKEVLVTIESSGTFSKTFHVNSGNRLLLQEVRLPDLPGNYVTKGSGSGCVYLQTSLKYNILPVADGKAPFALQVNTLPLNFDKAGDHRTFQIRINVSYTGERPSSNMVIVDVKMVSGFIPMKPSVKKLQDQPNIQRTEVNTNHVLIYIEKLTNQTLGFSFAVEQDIPVKNLKPAPIKVYDYYETDEFTVEEYSAPFSDGSEQGNA
modifications: full-length
B8: Q9Z2K1 (protein, UniProt Q9Z2K1 1-469, looked up)
chain: MATCSRQFTSSSSMKGSCGIGGGSSRMSSILAGGSCRAPSTCGGMSVTSSRFSSGGVCGIGGGYGGSFSSSSFGGGLGSGFGGRFDGFGGGFGAGLGGGLGGGIGDGLLVGSEKVTMQNLNDRLATYLDKVRALEEANRDLEVKIRDWYQRQRPTEIKDYSPYFKTIEDLKSKIIIATQENAQFTLQIDNARLAADDFRTKYENELFLRQSVEGDINGLRKVLDELTLSRADLEMQIENLREELAFLKKNHEEEMLALRGQTGGDVNVEMDAAPGVDLSRILNEMRDQYEQMAEKNRRDVEAWFLRKTEELNKEVASNSDLIQSNRSEVAELRRVFQGLEIELQSQLSMKASLENSLEETKGRYCMQLSQIQGLISSVEEQLAQLRCEMEQQSQEYNILLDVKTRLEQEIATYRRLLDGENIHSSSQHSSGQSYSSREVFSSSSRQPRSILKEQGSTSFSQSQSQSSRD
modifications: full-length
B9: P97466 (protein, UniProt P97466 1-232, looked up)
chain: MERCPSLGVTLYALVVVLGLRAAPAGGQHYLHIRPAPSDNLPLVDLIEHPDPIFDPKEKDLNETLLRSLLGGHYDPGFMATSPPEDRPGGGGGPAGGAEDLAELDQLLRQRPSGAMPSEIKGLEFSEGLAQGKKQRLSKKLRRKLQMWLWSQTFCPVLYAWNDLGSRFWPRYVKVGSCFSKRSCSVPEGMVCKPSKSVHLTVLRWRCQRRGGQRCGWIPIQYPIISECKCSC
modifications: full-length

Each molecule was assayed on CA19-9 modified proteins (assay: CA19-9 IP/MS (iTRAQ) of organoid conditioned media after Dox treatment). Settings: CA19-9 IP/MS relative abundance; A217 (genetic negative) organoid conditioned media, 0H (before treatment), IP with NS19-9; reference channel = 1.
Design: species or system mouse

Molecule	17 0H NS19
B1	1
B2	1
B3	1
B4	1
B5	1
B6	1
B7	1
B8	1
B9	1

Same assay, conditions: CA19-9 IP/MS relative abundance; A217 (genetic negative) organoid conditioned media, after 8 hours, IP with 5B1

Molecule	17 8H 5B1
B1	0.892
B2	6.439
B3	1.015
B4	4.606
B5	4.679
B6	2.255
B7	0.354
B8	0.566
B9	10.991

Same assay, conditions: CA19-9 IP/MS relative abundance; A217 (genetic negative) organoid conditioned media, after 8 hours, IP with NS19-9

Molecule	17 8H NS19
B1	0.727
B2	0.678
B3	0.774
B4	0.615
B5	0.777
B6	0.712
B7	1.026
B8	1.553
B9	0.71

Same assay, conditions: CA19-9 IP/MS relative abundance; A220 (C;R^LSL;F) organoid conditioned media, 0H (before treatment), IP with 5B1

Molecule	20 0H 5B1
B1	0.848
B2	6.246
B3	0.775
B4	4.076
B5	4.024
B6	1.964
B7	0.309
B8	1.182
B9	9.104
